The source of these data is paper doi:10.1101/351056.

The chains behind the UniProt entries cited, without tags or fusion partners. Where a name states a change or a piece, a line headed by the entry shows the natural chain unless it says otherwise. Residues count along the entry.
UniProt O22476, 24-1196: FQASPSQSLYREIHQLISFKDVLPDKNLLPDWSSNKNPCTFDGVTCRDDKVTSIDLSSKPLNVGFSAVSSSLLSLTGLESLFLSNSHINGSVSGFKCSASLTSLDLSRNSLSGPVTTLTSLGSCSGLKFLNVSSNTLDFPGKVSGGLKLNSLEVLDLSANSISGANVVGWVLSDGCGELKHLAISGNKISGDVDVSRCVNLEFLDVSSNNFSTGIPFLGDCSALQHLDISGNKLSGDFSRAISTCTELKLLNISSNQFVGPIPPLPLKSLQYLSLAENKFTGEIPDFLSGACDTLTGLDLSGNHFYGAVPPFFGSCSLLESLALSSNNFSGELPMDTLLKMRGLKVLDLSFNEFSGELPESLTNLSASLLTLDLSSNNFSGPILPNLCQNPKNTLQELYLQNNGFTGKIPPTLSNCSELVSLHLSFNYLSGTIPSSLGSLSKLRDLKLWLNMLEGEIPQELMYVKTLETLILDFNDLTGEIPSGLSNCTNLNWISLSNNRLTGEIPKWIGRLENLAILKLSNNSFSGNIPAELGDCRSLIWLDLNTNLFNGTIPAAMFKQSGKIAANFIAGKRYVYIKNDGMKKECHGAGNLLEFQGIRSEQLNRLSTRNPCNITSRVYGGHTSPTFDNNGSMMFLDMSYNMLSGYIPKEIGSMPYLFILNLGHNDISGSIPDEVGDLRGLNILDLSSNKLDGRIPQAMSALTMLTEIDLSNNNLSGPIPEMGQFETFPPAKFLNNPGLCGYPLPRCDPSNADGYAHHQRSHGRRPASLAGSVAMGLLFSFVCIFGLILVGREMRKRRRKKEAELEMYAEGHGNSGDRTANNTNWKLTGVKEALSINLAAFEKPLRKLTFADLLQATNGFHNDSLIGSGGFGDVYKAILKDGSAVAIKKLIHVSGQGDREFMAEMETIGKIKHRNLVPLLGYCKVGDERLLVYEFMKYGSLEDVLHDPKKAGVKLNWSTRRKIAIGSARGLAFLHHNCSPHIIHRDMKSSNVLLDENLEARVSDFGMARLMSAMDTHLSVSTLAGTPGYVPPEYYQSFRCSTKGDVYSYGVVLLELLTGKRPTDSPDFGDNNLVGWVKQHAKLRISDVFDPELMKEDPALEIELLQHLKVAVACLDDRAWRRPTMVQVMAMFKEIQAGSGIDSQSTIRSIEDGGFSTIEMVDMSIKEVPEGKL

Results are given in words; binding and its absence hold for the method and conditions named. In cells and extracts the contact can be indirect. Some binding calls cover weakened binding; strength is not graded here. Sequences can lack the tags named with a protein.

What all share (experiment): co-IP
Experiment [1] has as its target T1, GFP-TTL3ΔC2 (Arabidopsis thaliana) (UniProt Q9SIN1).
T1 sequence: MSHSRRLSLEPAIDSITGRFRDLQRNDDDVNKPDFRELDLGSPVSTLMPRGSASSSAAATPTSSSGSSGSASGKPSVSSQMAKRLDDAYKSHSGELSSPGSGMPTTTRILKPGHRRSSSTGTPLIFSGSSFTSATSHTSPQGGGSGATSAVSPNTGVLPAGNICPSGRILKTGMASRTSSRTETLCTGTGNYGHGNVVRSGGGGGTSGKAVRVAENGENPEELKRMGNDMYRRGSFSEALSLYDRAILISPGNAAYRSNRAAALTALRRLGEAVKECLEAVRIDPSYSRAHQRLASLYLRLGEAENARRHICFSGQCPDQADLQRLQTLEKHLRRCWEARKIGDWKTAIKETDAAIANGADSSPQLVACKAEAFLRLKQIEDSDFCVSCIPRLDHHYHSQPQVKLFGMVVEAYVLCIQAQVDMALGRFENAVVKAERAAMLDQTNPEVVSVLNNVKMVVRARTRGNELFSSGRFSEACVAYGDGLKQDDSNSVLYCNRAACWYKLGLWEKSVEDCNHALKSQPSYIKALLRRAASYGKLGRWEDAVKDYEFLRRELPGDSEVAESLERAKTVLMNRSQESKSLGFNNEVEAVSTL

Experiment [2] addresses T2, TTL3-GFP (N. benthamiana) (Arabidopsis thaliana) (UniProt Q9SIN1).
T2 sequence: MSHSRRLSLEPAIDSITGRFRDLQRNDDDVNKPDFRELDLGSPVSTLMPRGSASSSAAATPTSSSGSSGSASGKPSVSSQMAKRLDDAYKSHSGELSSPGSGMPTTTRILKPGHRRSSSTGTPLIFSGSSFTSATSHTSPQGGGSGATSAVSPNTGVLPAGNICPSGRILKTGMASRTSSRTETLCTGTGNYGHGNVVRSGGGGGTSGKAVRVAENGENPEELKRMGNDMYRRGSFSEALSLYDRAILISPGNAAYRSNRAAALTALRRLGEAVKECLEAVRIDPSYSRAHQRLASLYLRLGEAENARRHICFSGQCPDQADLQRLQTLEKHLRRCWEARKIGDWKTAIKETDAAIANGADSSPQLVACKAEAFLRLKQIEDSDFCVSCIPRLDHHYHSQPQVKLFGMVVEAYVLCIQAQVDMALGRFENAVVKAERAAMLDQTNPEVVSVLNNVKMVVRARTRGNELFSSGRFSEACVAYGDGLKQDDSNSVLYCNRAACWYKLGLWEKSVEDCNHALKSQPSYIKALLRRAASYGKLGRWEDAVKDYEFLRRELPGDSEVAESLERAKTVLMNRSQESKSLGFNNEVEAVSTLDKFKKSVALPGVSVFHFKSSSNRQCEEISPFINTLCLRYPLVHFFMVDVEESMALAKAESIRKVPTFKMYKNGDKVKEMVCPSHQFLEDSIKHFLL

The target in experiment [3] is T3, GFP-TTL3ΔN3 (Arabidopsis thaliana) (UniProt Q9SIN1).
T3 sequence: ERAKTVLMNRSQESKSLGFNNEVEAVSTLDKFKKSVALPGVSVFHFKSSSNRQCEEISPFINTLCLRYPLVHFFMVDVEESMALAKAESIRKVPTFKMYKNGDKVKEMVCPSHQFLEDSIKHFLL

For experiment [4], the target named is T4, GFP-TTL3ΔN2 (Arabidopsis thaliana) (UniProt Q9SIN1).
T4 sequence: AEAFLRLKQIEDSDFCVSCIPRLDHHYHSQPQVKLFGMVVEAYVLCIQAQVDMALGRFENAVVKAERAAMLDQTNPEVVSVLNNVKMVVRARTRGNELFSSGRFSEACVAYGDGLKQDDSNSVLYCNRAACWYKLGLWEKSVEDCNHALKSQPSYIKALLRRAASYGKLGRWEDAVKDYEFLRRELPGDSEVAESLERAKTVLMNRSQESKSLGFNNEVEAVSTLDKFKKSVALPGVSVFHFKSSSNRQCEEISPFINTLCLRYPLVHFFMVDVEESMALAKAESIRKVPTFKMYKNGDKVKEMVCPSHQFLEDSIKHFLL

Experiment [5] has as its target T5, GFP-TTL3 full length (Arabidopsis thaliana) (UniProt Q9SIN1).
T5 sequence: T2 sequence

Experiment [6] deals with T6, GFP-TTL3ΔN1 (Arabidopsis thaliana) (UniProt Q9SIN1).
T6 sequence: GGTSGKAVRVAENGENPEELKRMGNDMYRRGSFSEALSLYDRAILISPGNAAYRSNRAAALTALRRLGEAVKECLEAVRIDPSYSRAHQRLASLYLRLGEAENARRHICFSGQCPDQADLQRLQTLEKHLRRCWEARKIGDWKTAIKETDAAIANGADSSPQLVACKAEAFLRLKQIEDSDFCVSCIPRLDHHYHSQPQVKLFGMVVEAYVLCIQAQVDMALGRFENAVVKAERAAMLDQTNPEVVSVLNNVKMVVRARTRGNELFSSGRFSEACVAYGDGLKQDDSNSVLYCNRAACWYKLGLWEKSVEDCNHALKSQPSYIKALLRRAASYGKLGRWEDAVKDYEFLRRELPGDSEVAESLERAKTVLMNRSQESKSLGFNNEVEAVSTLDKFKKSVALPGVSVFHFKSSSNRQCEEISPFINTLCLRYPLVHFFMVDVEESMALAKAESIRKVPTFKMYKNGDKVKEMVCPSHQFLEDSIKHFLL

For the substance “BRI1-HA (from UniProt O22476 24-1196) (receptor)”, the binding result in experiment [1] is recorded as “binds”; in experiment [2] it was “binds”; in experiment [3] it was “no binding”; in experiment [4], “binds”; in experiment [5], “binds”; in experiment [6], “binds”.
